Results deposited as PubChem BioAssay AID743121 (NCATS, 2013).
The whole screen tested about 26,000 reagents; below is an unselected part. 167 of all reagents (0.63%) count as active. 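Calls are per gene from RSA p-values that are not deposited; an individual active-marked siRNA can sensitise only weakly.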 A number with no mark means an inactive call. The numbers tell different reagents against one gene apart.

Purpose: 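Partners whose loss is lethal together with topoisomerase I blockade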 (primary screen)
Cell system: MDA-MB-231 cells, a human breast cancer line
Reagent: single siRNA against human genes, 20 nM siRNA (0.8 pmol per well)
Timing: 120 h (drug added 48 h after transfection, read 72 h later)
Conditions: camptothecin 20 nM (about EC30) for 72 h; vehicle 0.1% DMSO in parallel plates
Measurement: 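CellTiter-Glo ATP signal, scaled to control siRNA as percent viability; sensitisation given as log2 of untreated divided by camptothecin-treated viability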
Reading the numbers: log2 vehicle/camptothecin viability: higher = stronger sensitisation to camptothecin; viability with camptothecin and viability without drug: higher = more viable cells
Active means: 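Active genes have an RSA gene-level p-value below 0.001, computed from the ratios of their separate siRNAs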

| gene | reagent no. | log2 vehicle/camptothecin viability | viability with camptothecin (% of control) | viability without drug (% of control) |
| --- | --- | --- | --- | --- |
| IL36RN | 1 | -0.557 | 57.2 | 38.9 |
| IL36RN | 2 | 0.228 | 43 | 50.4 |
| IL36RN | 3 | -0.168 | 65.5 | 58.3 |
| IL36RN | 4 | -0.111 | 59.5 | 55.1 |
| PAK6 | 1 | -0.229 | 69.1 | 59 |
| PAK6 | 2 | -0.453 | 84 | 61.4 |
| PAK6 | 3 | -0.344 | 35.2 | 27.7 |
| PAK6 | 4 | -0.0961 | 82.7 | 77.4 |
| MIDN | 1 | 0.365 | 54.8 | 70.6 |
| MIDN | 2 | -0.0481 | 66.4 | 64.2 |
| MIDN | 3 | 0.463 | 41.6 | 57.3 |
| MIDN | 4 | 0.0621 | 66.5 | 69.4 |
| FN3KRP | 1 | -0.221 | 83.6 | 71.7 |
| FN3KRP | 2 | 0.635 | 20.8 | 32.2 |
| FN3KRP | 3 | -0.139 | 21.9 | 19.9 |
| FN3KRP | 4 | -0.603 | 80.2 | 52.8 |
| KDSR | 1 | 0.141 | 80.1 | 88.4 |
| KDSR | 2 | -0.345 | 57.2 | 45 |
| KDSR | 3 | -0.132 | 98.7 | 90.1 |
| TRIM15 | 1 | -0.249 | 59.8 | 50.3 |
| TRIM15 | 2 | 0.423 | 69.3 | 92.9 |
| TRIM15 | 3 | 0.271 | 54.7 | 66 |
| TRIM15 | 4 | -0.198 | 83.6 | 72.9 |
| GRM1 | 1 | 0.362 | 48.8 | 62.7 |
| GRM1 | 2 | -0.462 | 45.4 | 33 |
| GRM1 | 3 | -0.108 | 103 | 95.1 |
| GRM1 | 4 | -0.144 | 96.8 | 87.6 |
| SERPINA1 | 1 | -0.304 | 77.6 | 62.8 |
| SERPINA1 | 2 | -0.0657 | 101 | 96.4 |
| SERPINA1 | 3 | -0.269 | 72.3 | 60 |
| FBLN7 | 1 | -0.111 | 95.9 | 88.8 |
| FBLN7 | 2 | -0.564 | 83.9 | 56.7 |
| FBLN7 | 3 | -0.333 | 88.3 | 70.1 |
| FBLN7 | 4 | 0.221 | 85.3 | 99.4 |
| MAD2L1BP | 1 | 0.45 | 53.8 | 73.6 |
| MAD2L1BP | 2 | 0.0935 | 101 | 107 |
| MAD2L1BP | 3 | -0.00169 | 91.5 | 91.4 |
| MAD2L1BP | 4 | -0.0452 | 103 | 99.6 |

Part of the list above in another layout:
{"gene":"PAK6","reagent no.":4,"log2 vehicle/camptothecin viability":-0.0961,"viability with camptothecin (% of control)":82.7,"viability without drug (% of control)":77.4}
{"gene":"MIDN","reagent no.":1,"log2 vehicle/camptothecin viability":0.365,"viability with camptothecin (% of control)":54.8,"viability without drug (% of control)":70.6}
{"gene":"MIDN","reagent no.":2,"log2 vehicle/camptothecin viability":-0.0481,"viability with camptothecin (% of control)":66.4,"viability without drug (% of control)":64.2}
{"gene":"MIDN","reagent no.":3,"log2 vehicle/camptothecin viability":0.463,"viability with camptothecin (% of control)":41.6,"viability without drug (% of control)":57.3}
{"gene":"MIDN","reagent no.":4,"log2 vehicle/camptothecin viability":0.0621,"viability with camptothecin (% of control)":66.5,"viability without drug (% of control)":69.4}
{"gene":"FN3KRP","reagent no.":1,"log2 vehicle/camptothecin viability":-0.221,"viability with camptothecin (% of control)":83.6,"viability without drug (% of control)":71.7}
{"gene":"FN3KRP","reagent no.":2,"log2 vehicle/camptothecin viability":0.635,"viability with camptothecin (% of control)":20.8,"viability without drug (% of control)":32.2}
{"gene":"FN3KRP","reagent no.":3,"log2 vehicle/camptothecin viability":-0.139,"viability with camptothecin (% of control)":21.9,"viability without drug (% of control)":19.9}
{"gene":"FN3KRP","reagent no.":4,"log2 vehicle/camptothecin viability":-0.603,"viability with camptothecin (% of control)":80.2,"viability without drug (% of control)":52.8}
{"gene":"KDSR","reagent no.":1,"log2 vehicle/camptothecin viability":0.141,"viability with camptothecin (% of control)":80.1,"viability without drug (% of control)":88.4}

Additional entries follow:
| gene | reagent no. | log2 vehicle/camptothecin viability | viability with camptothecin (% of control) | viability without drug (% of control) |
| --- | --- | --- | --- | --- |
| SLC39A6 | 1 | -0.0322 | 35.6 | 34.8 |
| SLC39A6 | 2 | 0.858 | 28.8 | 52.2 |
| SLC39A6 | 3 | -0.225 | 95.2 | 81.5 |
| SLC39A6 | 4 | 0.0573 | 15.9 | 16.6 |
| SDHC | 1 | 0.0672 | 100 | 105 |
| SDHC | 2 | -0.389 | 57.5 | 43.9 |
| SDHC | 3 | 0.157 | 83.1 | 92.7 |
| SDHC | 4 | -0.185 | 99.4 | 87.4 |
| GPR132 | 1 | 0.316 | 9.87 | 12.3 |
| GPR132 | 2 | 0.523 | 7.38 | 10.6 |
| GPR132 | 3 | -0.331 | 98.5 | 78.3 |
| GPR132 | 4 | -0.252 | 87.8 | 73.7 |
| UBL4A | 1 | -0.7 | 84.4 | 52 |
| UBL4A | 2 | -0.336 | 51.3 | 40.6 |
| UBL4A | 3 | -0.113 | 74.8 | 69.1 |
| UBL4A | 4 | -0.0376 | 104 | 101 |
| ALDH6A1 | 1 | 0.421 | 55.5 | 74.3 |
| ALDH6A1 | 2 | -0.211 | 104 | 90 |
| ALDH6A1 | 3 | -0.297 | 46.4 | 37.7 |
| ALDH6A1 | 4 | 0.18 | 60.1 | 68.1 |
| NUPR1 | 1 | 1.18 | 18 | 40.9 |
| NUPR1 | 2 | -0.132 | 97.5 | 89 |
| NUPR1 | 3 | -0.0223 | 58.6 | 57.7 |
| NUPR1 | 4 | 0.0799 | 33.9 | 35.9 |
| FCRL6 | 1 | -0.269 | 35.7 | 29.6 |
| FCRL6 | 2 | -0.542 | 62.2 | 42.8 |
| FCRL6 | 3 | -0.0899 | 50.9 | 47.8 |
| FCRL6 | 4 | -0.606 | 94.6 | 62.1 |
| GPR101 | 1 | -0.681 | 79.6 | 49.6 |
| GPR101 | 2 | 0.0748 | 49.7 | 52.4 |
| GPR101 | 3 | -0.231 | 67.7 | 57.7 |
| GPR101 | 4 | -0.176 | 94.6 | 83.7 |
| HSD17B11 | 1 | -0.169 | 87.5 | 77.9 |
| HSD17B11 | 2 | 0.199 | 86.7 | 99.5 |
| HSD17B11 | 3 | -0.0427 | 114 | 111 |
| HSD17B11 | 4 | -0.143 | 98.9 | 89.6 |
| HSD17B11 | 5 | -0.238 | 52.1 | 44.1 |
| HSD17B11 | 6 | 0.231 | 72.9 | 85.5 |
| HSD17B11 | 7 | -0.127 | 108 | 98.5 |
| HSD17B11 | 8 | -0.132 | 91 | 83.1 |
| NPBWR2 | 1 | 0.531 | 57.5 | 83.1 |
| NPBWR2 | 2 | 0.156 | 64.4 | 71.7 |
| NPBWR2 | 3 | -0.0541 | 74.2 | 71.5 |
| NPBWR2 | 4 | 0.0209 | 91.4 | 92.8 |
| AXIN2 | 1 | -0.144 | 88.7 | 80.3 |
| AXIN2 | 2 | -0.508 | 82.5 | 58 |
| AXIN2 | 3 | -0.469 | 103 | 74.3 |
| AXIN2 | 4 | -0.307 | 86 | 69.5 |
| UTS2R | 1 | -0.418 | 104 | 78.1 |
| UTS2R | 2 | 0.479 | 37.5 | 52.3 |
| UTS2R | 3 | -0.571 | 86.9 | 58.5 |
| UTS2R | 4 | -0.142 | 87.2 | 79 |
